Reference: PubChem BioAssay AID1508597 (Cure First, 2020)

Purpose: 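Survival screen with siRNA in ovarian cancer cells derived from patients, with or without rucaparib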 (primary screen)
Cells: human ovarian carcinoma lines grown from tumours: OCI-P5x (papillary serous) and OCI-C5x (clear cell)
Reagents: siRNA pool against human genes, 1.25 pmol siRNA per well
Timing: 72 h or 96 h, depending on the cell culture
Treatment: rucaparib 20 µM (about IC30) or vehicle, present until read-out
Rucaparib or vehicle: Vehicle
Cell line: OCI-C5x (clear cell)
Read-out: 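Luminescent ATP-based viability assay read 72 or 96 h after transfection, depending on culture, given as normalised percent viability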
Reading the numbers: viability, normalised: higher = more viable cells remaining
Rule for the call: 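a well counts as a hit if its normalised viability is under 80 percent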
Calls: active = viability under 80%; inactive = viability 80% or more
Shown is an unselected part of the about 2,100 reagents, under one of the conditions tested. 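Calls flag viability under 80% in either arm, not effects specific to rucaparib; the reference for percent is not stated.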 Some reagents were tested in more than one well and are listed for each. Not stated in the record: the 100% reference.

gene symbol,technical replicate,"viability, normalised (%)",Outcome
SYK,1,91,inactive
SYK,2,77.6,active
SYK,3,63,active
CLDN5,1,47,active
CLDN5,2,70,active
CLDN5,3,46.3,active
EIF4A3,1,19.1,active
EIF4A3,2,20.2,active
EIF4A3,3,20.9,active
ERCC2,1,50.4,active
ERCC2,1,63.8,active
ERCC2,2,49.2,active
ERCC2,2,69,active
ERCC2,3,67,active
ERCC2,3,59.5,active
MED28,1,33.8,active
MED28,2,42.8,active
MED28,3,37.2,active
MED16,1,46,active
MED16,2,42.1,active
MED16,3,47.4,active
POLH,1,61.5,active
POLH,1,59.3,active
POLH,2,64.4,active
POLH,2,63.4,active
POLH,3,58.6,active
POLH,3,45.3,active
STK10,1,68.3,active
STK10,2,55,active
STK10,3,49.8,active
POLR1B,1,50.7,active
POLR1B,2,50,active
POLR1B,3,42.9,active
RASGRF1,1,79,active
RASGRF1,2,69.3,active
RASGRF1,3,48.2,active

3 entries from above in another layout:
gene symbol | technical replicate | viability, normalised (%) | Outcome
POLR1B | 2 | 50 | active
POLR1B | 3 | 42.9 | active
RASGRF1 | 1 | 79 | active

The list goes on.
gene symbol,technical replicate,"viability, normalised (%)",Outcome
DYRK3,1,71.7,active
DYRK3,2,43.5,active
DYRK3,3,69.3,active
YY1,1,68.5,active
YY1,1,32.6,active
YY1,2,56.2,active
YY1,2,39.3,active
YY1,3,39.5,active
YY1,3,58.1,active
ENPP5,1,36.4,active
ENPP5,2,33.1,active
ENPP5,3,32.1,active
POU4F1,1,34.8,active
POU4F1,2,45.7,active
POU4F1,3,47,active
ARSA,1,40,active
ARSA,2,43.2,active
ARSA,3,46.5,active
GALK1,1,50.6,active
GALK1,2,59.4,active
GALK1,3,56.7,active
